This is an account of results in article PMC3534531.

Results are given in words; binding and its absence hold for the method and conditions named. Binding can be weak; no strength is given.

The target of the assay is type III secretion system protein fliF CPn0860 (Chlamydia pneumoniae). Nature of the assay: two-hybrid; ORFeome-wide library screen: bait in pBD-Gate2 (GAL4 DNA-binding domain), pooled Cpn ORFeome prey library in pAD-Gate2, co-transformed into S. cerevisiae AH109; selection on SD/-trp-leu-ade-his, at least 4 days at 28°C; recovered preys retested with the bait or empty pBD-Gate2 and sequenced.

B1: type III Secretion protein fliN CPn0704 (protein, UniProt A0ABN3YRD3 1-371)
chain: MAVAADSSASWLKSRNNFLSSLGKTEEQVAAPEFPKELCQHKIREKFRLEDVQVSIKFRGSITAVEATKEFGVHLLIQPMVVQPWEVENLLFLTSEEDLQELMVAVFDDASLASYFYEKDKLLGFHYYFVAEACKLFEELQWVPSLSAKVGGDAIFTATSLQGSFQVVDISLRLDGKNVRCRLLLPEDTFQSCQKFFSGLHDESDLHNIDQTQQISLSVEVGYSQLTQEEWHQVVPGSFIMLDSCLYDPETEESGALLTVQKHQFFGGRFLTPSSGEFKITSYPNLTHEDPPLPENPQASAAPLPGYSRLVVEVARYSLAVSEFIKLNLGSILSLGNHPAYGVDIILDGAKVGRGEIIALGDVLGIRVLEV
As to B1, the binding result is “binds”.
